Data on 2 substances can be found in patent publication US20070128187A1 (GENOME THERAPEUTICS, published 2007).

Sequences of proteins named here, by UniProt entry; tags and fusion partners are left off. A change or cut given only in a name is not applied to a line headed by its entry.
UniProt Q04721: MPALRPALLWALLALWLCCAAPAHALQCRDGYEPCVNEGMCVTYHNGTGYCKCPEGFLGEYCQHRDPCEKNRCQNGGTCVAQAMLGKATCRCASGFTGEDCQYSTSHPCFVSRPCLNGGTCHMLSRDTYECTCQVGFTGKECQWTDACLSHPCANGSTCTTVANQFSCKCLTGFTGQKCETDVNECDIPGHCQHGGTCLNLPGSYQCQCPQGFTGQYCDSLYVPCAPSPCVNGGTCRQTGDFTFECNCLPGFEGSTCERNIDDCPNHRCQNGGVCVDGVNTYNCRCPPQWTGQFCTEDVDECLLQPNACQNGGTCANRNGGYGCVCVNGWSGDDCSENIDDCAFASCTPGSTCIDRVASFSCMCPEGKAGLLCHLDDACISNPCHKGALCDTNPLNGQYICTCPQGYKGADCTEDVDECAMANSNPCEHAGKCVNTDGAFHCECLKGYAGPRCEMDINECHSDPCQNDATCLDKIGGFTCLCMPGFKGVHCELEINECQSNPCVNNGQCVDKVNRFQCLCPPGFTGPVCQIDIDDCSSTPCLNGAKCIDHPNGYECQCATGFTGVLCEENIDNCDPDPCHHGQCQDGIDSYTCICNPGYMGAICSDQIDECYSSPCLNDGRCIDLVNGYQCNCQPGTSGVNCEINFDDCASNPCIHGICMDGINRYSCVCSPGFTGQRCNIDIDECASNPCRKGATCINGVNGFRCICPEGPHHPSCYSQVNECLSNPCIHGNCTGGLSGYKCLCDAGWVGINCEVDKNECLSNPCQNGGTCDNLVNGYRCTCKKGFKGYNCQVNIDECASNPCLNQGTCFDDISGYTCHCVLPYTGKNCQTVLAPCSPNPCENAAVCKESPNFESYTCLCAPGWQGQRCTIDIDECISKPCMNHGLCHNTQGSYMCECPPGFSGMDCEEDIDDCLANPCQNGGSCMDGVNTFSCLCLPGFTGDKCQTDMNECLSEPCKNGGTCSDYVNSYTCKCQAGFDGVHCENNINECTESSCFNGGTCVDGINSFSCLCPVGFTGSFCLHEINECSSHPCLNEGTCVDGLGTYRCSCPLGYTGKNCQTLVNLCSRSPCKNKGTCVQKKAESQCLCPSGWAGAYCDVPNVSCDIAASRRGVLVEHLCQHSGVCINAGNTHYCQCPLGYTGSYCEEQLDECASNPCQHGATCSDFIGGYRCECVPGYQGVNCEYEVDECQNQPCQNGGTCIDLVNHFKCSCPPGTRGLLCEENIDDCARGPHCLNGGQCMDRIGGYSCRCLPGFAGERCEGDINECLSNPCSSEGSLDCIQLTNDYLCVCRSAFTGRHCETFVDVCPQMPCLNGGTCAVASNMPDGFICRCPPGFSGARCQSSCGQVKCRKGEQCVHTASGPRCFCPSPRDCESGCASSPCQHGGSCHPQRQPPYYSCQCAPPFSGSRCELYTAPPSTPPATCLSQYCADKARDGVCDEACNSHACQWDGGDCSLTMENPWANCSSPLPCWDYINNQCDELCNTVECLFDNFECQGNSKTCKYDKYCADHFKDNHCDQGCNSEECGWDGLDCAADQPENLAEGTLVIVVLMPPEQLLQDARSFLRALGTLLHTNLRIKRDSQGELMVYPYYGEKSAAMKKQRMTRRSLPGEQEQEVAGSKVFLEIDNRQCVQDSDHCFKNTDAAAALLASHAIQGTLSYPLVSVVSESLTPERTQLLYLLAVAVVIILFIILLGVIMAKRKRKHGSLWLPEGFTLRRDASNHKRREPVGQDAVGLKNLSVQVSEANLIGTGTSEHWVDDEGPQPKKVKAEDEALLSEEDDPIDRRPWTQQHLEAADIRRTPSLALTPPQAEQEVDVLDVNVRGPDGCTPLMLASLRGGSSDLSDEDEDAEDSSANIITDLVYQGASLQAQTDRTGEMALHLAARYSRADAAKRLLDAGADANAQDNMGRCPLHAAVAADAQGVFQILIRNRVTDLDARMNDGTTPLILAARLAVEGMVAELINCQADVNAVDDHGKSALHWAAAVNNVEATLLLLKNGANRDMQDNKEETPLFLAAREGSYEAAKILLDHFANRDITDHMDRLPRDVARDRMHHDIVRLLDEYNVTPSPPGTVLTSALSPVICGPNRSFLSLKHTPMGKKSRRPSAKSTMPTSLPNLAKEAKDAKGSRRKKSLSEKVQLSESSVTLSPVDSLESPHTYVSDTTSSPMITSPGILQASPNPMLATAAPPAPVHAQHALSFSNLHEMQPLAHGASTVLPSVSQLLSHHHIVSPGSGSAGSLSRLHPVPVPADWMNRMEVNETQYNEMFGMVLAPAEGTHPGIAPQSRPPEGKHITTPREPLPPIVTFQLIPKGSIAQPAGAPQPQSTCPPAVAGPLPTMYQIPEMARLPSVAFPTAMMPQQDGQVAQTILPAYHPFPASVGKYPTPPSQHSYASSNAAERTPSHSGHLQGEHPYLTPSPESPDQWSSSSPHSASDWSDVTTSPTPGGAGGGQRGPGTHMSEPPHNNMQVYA
UniProt Q9H2X0: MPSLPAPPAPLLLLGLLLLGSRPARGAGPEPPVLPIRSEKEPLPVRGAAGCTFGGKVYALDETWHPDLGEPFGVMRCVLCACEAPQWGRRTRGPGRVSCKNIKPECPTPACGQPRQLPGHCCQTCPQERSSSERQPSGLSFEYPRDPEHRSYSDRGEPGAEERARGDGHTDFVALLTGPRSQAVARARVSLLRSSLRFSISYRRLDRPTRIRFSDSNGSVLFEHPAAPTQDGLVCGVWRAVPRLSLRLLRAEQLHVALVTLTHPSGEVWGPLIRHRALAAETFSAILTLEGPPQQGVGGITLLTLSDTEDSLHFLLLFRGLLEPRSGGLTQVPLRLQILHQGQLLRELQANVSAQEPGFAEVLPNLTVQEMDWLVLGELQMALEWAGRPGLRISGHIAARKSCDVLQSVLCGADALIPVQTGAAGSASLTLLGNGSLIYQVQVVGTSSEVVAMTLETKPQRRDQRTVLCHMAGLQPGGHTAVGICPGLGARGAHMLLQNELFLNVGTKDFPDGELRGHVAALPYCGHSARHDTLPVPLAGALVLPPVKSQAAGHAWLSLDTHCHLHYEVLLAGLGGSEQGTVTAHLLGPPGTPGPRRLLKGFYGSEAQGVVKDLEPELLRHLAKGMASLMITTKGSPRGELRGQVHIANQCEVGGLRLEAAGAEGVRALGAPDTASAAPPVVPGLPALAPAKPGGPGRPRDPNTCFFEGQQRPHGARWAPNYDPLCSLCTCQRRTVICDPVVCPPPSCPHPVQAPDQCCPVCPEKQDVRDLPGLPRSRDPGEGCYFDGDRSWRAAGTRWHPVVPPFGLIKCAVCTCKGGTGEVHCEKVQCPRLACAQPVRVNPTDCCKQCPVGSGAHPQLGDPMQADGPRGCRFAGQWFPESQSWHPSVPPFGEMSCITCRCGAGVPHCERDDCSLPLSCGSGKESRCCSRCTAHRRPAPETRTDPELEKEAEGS

No constants are given. Whether binding was seen depends on the method and setting. Binding calls can cover weak binding; strength is not graded here.

In this test the target is T1, Dkk-1 bait sequence (yeast two hybrid) (human) (UniProt O94907).
T1 sequence: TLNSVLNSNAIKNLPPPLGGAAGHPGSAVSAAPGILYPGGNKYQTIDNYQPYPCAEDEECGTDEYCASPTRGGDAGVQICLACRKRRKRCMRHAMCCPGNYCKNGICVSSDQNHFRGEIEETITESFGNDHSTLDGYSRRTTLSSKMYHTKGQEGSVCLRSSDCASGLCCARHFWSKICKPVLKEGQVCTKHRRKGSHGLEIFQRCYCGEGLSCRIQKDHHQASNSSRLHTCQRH
In words: Y2H screen with the Dkk-1 bait (Hela and fetal brain libraries).

As for “Notch-2 (from UniProt Q04721) (receptor)”, the binding entry is recorded as “binds”. Take chordin (from UniProt Q9H2X0): the binding entry was “binds”.
